The text below walks through data of the supplement of paper PMC3353916.

Single values of this set are uncertain.

The data set has as its system Sindbis virus TE/5'2J-GFP. In words: percent infected (GFP+ in RFP+ ISG-expressing cells); higher = more infection (less antiviral activity). To be noted: experiment: primary screen (single well).

“MGKKYKNIVLLKGLEVINDYHFRMVKSLLSNDLKLNLKMREEYDKIQIADLMEEKFRGDAGLGKLIKIFEDIPTLEDLAETLKKEKLKVKGPALSRKRKKEVDATSPAPSTSSTVKTEGAEATPGAQKRKKSTKEKAGPKGSKVSEEQTQPPSPAGAGMSTAMGRSPSPKTSLSAPPNSSSTENPKTVAKCQVTPRRNVLQKRPVIVKVLSTTKPFEYETPEMEKKIMFHATVATQTQFFHVKVLNTSLKEKFNGKKIIIISDYLEYDSLLEVNEESTVSEAGPNQTFEVPNKIINRAKETLKIDILHKQASGNIVYGVFMLHKKTVNQKTTIYEIQDDRGKMDVVGTGQCHNIPCEEGDKLQLFCFRLRKKNQMSKLISEMHSFIQIKKKTNPRNNDPKSMKLPQEQRQLPYPSEASTTFPESHLRTPQMPPTTPSSSFFTKKSEDTISKMNDFMRMQILKEGSHFPGPFMTSIGPAESHPHTPQMPPSTPSSSFLTTKSEDTISKMNDFMRMQILKEGSHFPGPFMTSIGPAESHPHTPQMPPSTPSSSFLTTLKPRLKTEPEEVSIEDSAQSDLKEVMVLNATESFVYEPKEQKKMFHATVATENEVFRVKVFNIDLKEKFTPKKIIAIANYVCRNGFLEVYPFTLVADVNADRNMEIPKGLIRSASVTPKINQLCSQTKGSFVNGVFEVHKKNVRGEFTYYEIQDNTGKMEVVVHGRLTTINCEEGDKLKLTCFELAPKSGNTGELRSVIHSHIKVIKTRKNKKDILNPDSSMETSPDFFF [IFI16]” gave a percent infected (BHK/NZAP-Zeo (ZAP)) of 95.9%.
In the case of “MNPESSIFIEDYLKYFQDQVSRENLLQLLTDDEAWNGFVAAAELPRDEADELRKALNKLASHMVMKDKNRHDKDQQHRQWFLKEFPRLKRELEDHIRKLRALAEEVEQVHRGTTIANVVSNSVGTTSGILTLLGLGLAPFTEGISFVLLDTGMGLGAAAAVAGITCSVVELVNKLRARAQARNLDQSGTNVAKVMKEFVGGNTPNVLTLVDNWYQVTQGIGRNIRAIRRARANPQLGAYAPPPHVIGRISAEGGEQVERVVEGPAQAMSRGTMIVGAATGGILLLLDVVSLAYESKHLLEGAKSESAEELKKRAQELEGKLNFLTKIHEMLQPGQDQ [APOL2]”, the percent infected was 98.5% (BHK/HA-Zeo (control)) and 95.9% (BHK/NZAP-Zeo (ZAP)).
Consider “MNMTQARVLVAAVVGLVAVLLYASIHKIEEGHLAVYYRGGALLTSPSGPGYHIMLPFITTFRSVQTTLQTDEVKNVPCGTSGGVMIYIDRIEVVNMLAPYAVFDIVRNYTADYDKTLIFNKIHHELNQFCSAHTLQEVYIELFDQIDENLKQALQKDLNLMAPGLTIQAVRVTKPKIPEAIRRNFELMEAEKTKLLIAAQKQKVVEKEAETERKKAVIEAEKIAQVAKIRFQQKVMEKETEKRISEIEDAAFLAREKAKADAEYYAAHKYATSNKHKLTPEYLELKKYQAIASNSKIYFGSNIPNMFVDSSCALKYSDIRTGRESSLPSKEALEPSGENVIQNKESTG [ERLIN1]”, for which the percent infected by setting is: (BHK/HA-Zeo (control)) 97.6%; (BHK/NZAP-Zeo (ZAP)) 85.5%.
Consider “MNSSKSSETQCTERGCFSSQMFLWTVAGIPILFLSACFITRCVVTFRIFQTCDEKKFQLPENFTELSCYNYGSGSVKNCCPLNWEYFQSSCYFFSTDTISWALSLKNCSAMGAHLVVINSQEEQEFLSYKKPKMREFFIGLSDQVVEGQWQWVDGTPLTKSLSFWDVGEPNNIATLEDCATMRDSSNPRQNWNDVTCFLNYFRICEMVGINPLNKGKSL [CLEC4E]”, for which, where the note is “BHK/NZAP-Zeo (ZAP)”, the percent infected turned out to be 96.4%.
In turn, “MNAEPERKFGVVVVGVGRAGSVRMRDLRNPHPSSAFLNLIGFVSRRELGSIDGVQQISLEDALSSQEVEVAYICSESSSHEDYIRQFLNAGKHVLVEYPMTLSLAAAQELWELAEQKGKVLHEEHVELLMEEFAFLKKEVVGKDLLKGSLLFTAGPLEEERFGFPAFSGISRLTWLVSLFGELSLVSATLEERKEDQYMKMTVCLETEKKSPLSWIEEKGPGLKRNRYLSFHFKSGSLENVPNVGVNKNIFLKDQNIFVQKLLGQFSEKELAAEKKRILHCLGLAEEIQKYCCSRK [BLVRA]” registered a percent infected (BHK/HA-Zeo (control)) of 98.3% and a percent infected (BHK/NZAP-Zeo (ZAP)) of 95.8%.
“MAYPGYGGGFGNFSIQVPGMQMGQPVPETGPAILLDGYSGPAYSDTYSSAGDSVYTYFSAVAGQDGEVDAEELQRCLTQSGINGTYSPFSLETCRIMIAMLDRDHTGKMGFNAFKELWAALNAWKENFMTVDQDGSGTVEHHELRQAIGLMGYRLSPQTLTTIVKRYSKNGRIFFDDYVACCVKLRALTDFFRKRDHLQQGSANFIYDDFLQGTMAI [GCA]”: the percent infected is, setting by setting: (BHK/HA-Zeo (control)) 98.6%; (BHK/NZAP-Zeo (ZAP)) 97.5%.
As for “MKEDCLPSSHVPISDSKSIQKSELLGLLKTYNCYHEGKSFQLRHREEEGTLIIEGLLNIAWGLRRPIRLQMQDDREQVHLPSTSWMPRRPSCPLKEPSPQNGNITAQGPSIQPVHKAESSTDSSGPLEEAEEAPQLMRTKSDASCMSQRRPKCRAPGEAQRIRRHRFSINGHFYNHKTSVFTPAYGSVTNVRVNSTMTTLQVLTLLLNKFRVEDGPSEFALYIVHESGERTKLKDCEYPLISRILHGPCEKIARIFLMEADLGVEVPHEVAQYIKFEMPVLDSFVEKLKEEEEREIIKLTMKFQALRLTMLQRLEQLVEAK [RASSF4]”, the percent infected was determined as 97.5% (BHK/HA-Zeo (control)) and 77.1% (BHK/NZAP-Zeo (ZAP)).
Take “MSRRSQRLTRYSQGDDDGSSSSGGSSVAGSQSTLFKDSPLRTLKRKSSNMKRLSPAPQLGPSSDAHTSYYSESLVHESWFPPRSSLEELHGDANWGEDLRVRRRRGTGGSESSRASGLVGRKATEDFLGSSSGYSSEDDYVGYSDVDQQSSSSRLRSAVSRAGSLLWMVATSPGRLFRLLYWWAGTTWYRLTTAASLLDVFVLTRRFSSLKTFLWFLLPLLLLTCLTYGAWYFYPYGLQTFHPALVSWWAAKDSRRPDEGWEARDSSPHFQAEQRVMSRVHSLERRLEALAAEFSSNWQKEAMRLERLELRQGAPGQGGGGGLSHEDTLALLEGLVSRREAALKEDFRRETAARIQEELSALRAEHQQDSEDLFKKIVRASQESEARIQQLKSEWQSMTQESFQESSVKELRRLEDQLAGLQQELAALALKQSSVAEEVGLLPQQIQAVRDDVESQFPAWISQFLARGGGGRVGLLQREEMQAQLRELESKILTHVAEMQGKSAREAAASLSLTLQKEGVIGVTEEQVHHIVKQALQRYSEDRIGLADYALESGGASVISTRCSETYETKTALLSLFGIPLWYHSQSPRVILQPDVHPGNCWAFQGPQGFAVVRLSARIRPTAVTLEHVPKALSPNSTISSAPKDFAIFGFDEDLQQEGTLLGKFTYDQDGEPIQTFHFQAPTMATYQVVELRILTNWGHPEYTCIYRFRVHGEPAH [UNC84B]”: the percent infected is, setting by setting: (BHK/HA-Zeo (control)) 98.6%; (BHK/NZAP-Zeo (ZAP)) 95.3%.
Substance “MGKPARKGCEWKRFLKNNWVLLSTVAAVVLGITTGVLVREHSNLSTLEKFYFAFPGEILMRMLKLIILPLIISSMITGVAALDSNVSGKIGLRAVVYYFCTTLIAVILGIVLVVSIKPGVTQKVGEIARTGSTPEVSTVDAMLDLIRNMFPENLVQACFQQYKTKREEVKPPSDPEMNMTEESFTAVMTTAISKNKTKEYKIVGMYSDGINVLGLIVFCLVFGLVIGKMGEKGQILVDFFNALSDATMKIVQIIMCYMPLGILFLIAGKIIEVEDWEIFRKLGLYMATVLTGLAIHSIVILPLIYFIVVRKNPFRFAMGMAQALLTALMISSSSATLPVTFRCAEENNQVDKRITRFVLPVGATINMDGTALYEAVAAVFIAQLNDLDLGIGQIITISITATSASIGAAGVPQAGLVTMVIVLSAVGLPAEDVTLIIAVDWLLDRFRTMVNVLGDAFGTGIVEKLSKKELEQMDVSSEVNIVNPFALESTILDNEDSDTKKSYVNGGFAVDKSDTISFTQTSQF [SLC1A1]” yielded a percent infected (BHK/HA-Zeo (control)) of 91%.
Turning to “MEALSRAGQEMSLAALKQHDPYITSIADLTGQVALYTFCPKANQWEKTDIEGTLFVYRRSASPYHGFTIVNRLNMHNLVEPVNKDLEFQLHEPFLLYRNASLSIYSIWFYDKNDCHRIAKLMADVVEEETRRSQQAARDKQSPSQANGCSDHRPIDILEMLSRAKDEYERNQMGDSNISSPGLQPSTQLSNLGSTETLEEMPSGSQDKSAPSGHKHLTVEELFGTSLPKEQPAVVGLDSEEMERLPGDASQKEPNSFLPFPFEQLGGAPQSETLGVPSAAHHSVQPEITTPVLITPASITQSNEKHAPTYTIPLSPVLSPTLPAEAPTAQVPPSLPRNSTMMQAVKTTPRQRSPLLNQPVPELSHASLIANQSPFRAPLNVTNTAGTSLPSVDLLQKLRLTPQHDQIQTQPLGKGAMVASFSPAAGQLATPESFIEPPSKTAAARVAASASLSNMVLAPLQSMQQNQDPEVFVQPKVLSSAIPVAGAPLVTATTTAVSSVLLAPSVFQQTVTRSSDLERKASSPSPLTIGTPESQRKPSIILSKSQLQDTLIHLIKNDSSFLSTLHEVYLQVLTKNKDNHNL [DCP1A]”, the percent infected (BHK/HA-Zeo (control)) is 98.7% and the percent infected (BHK/NZAP-Zeo (ZAP)) amounted to 98.5%.
“MKIFLPVLLAALLGVERASSLMCFSCLNQKSNLYCLKPTICSDQDNYCVTVSASAGIGNLVTFGHSLSKTCSPACPIPEGVNVGVASMGISCCQSFLCNFSAADGGLRASVTLLGAGLLLSLLPALLRFGP [LY6E]” had a percent infected (BHK/HA-Zeo (control)) of 97.8% and a percent infected (BHK/NZAP-Zeo (ZAP)) of 95.2%.
The substance “MEEKRRKYSISSDNSDTTDSHATSTSASRCSKLPSSTKSGWPRQNEKKPSEVFRTDLITAMKIPDSYQLSPDDYYILADPWRQEWEKGVQVPAGAEAIPEPVVRILPPLEGPPAQASPSSTMLGEGSQPDWPGGSRYDLDEIDAYWLELINSELKEMERPELDELTLERVLEELETLCHQNMARAIETQEGLGIEYDEDVVCDVCRSPEGEDGNEMVFCDKCNVCVHQACYGILKVPTGSWLCRTCALGVQPKCLLCPKRGGALKPTRSGTKWVHVSCALWIPEVSIGCPEKMEPITKISHIPASRWALSCSLCKECTGTCIQCSMPSCVTAFHVTCAFDHGLEMRTILADNDEVKFKSFCQEHSDGGPRNEPTSEPTEPSQAGEDLEKVTLRKQRLQQLEEDFYELVEPAEVAERLDLAEALVDFIYQYWKLKRKANANQPLLTPKTDEVDNLAQQEQDVLYRRLKLFTHLRQDLERVRNLCYMVTRRERTKHAICKLQEQIFHLQMKLIEQDLCRGLSTSFPIDGTFFNSWLAQSVQITAENMAMSEWPLNNGHREDPAPGLLSEELLQDEETLLSFMRDPSLRPGDPARKARGRTRLPAKKKPPPPPPQDGPGSRTTPDKAPKKTWGQDAGSGKGGQGPPTRKPPRRTSSHLPSSPAAGDCPILATPESPPPLAPETPDEAASVAADSDVQVPGPAASPKPLGRLRPPRESKVTRRLPGARPDAGMGPPSAVAERPKVSLHFDTETDGYFSDGEMSDSDVEAEDGGVQRGPREAGAEEVVRMGVLAS [PHF15]” yielded a percent infected (BHK/HA-Zeo (control)) of 96.9%.
“MDNSGKEAEAMALLAEAERKVKNSQSFFSGLFGGSSKIEEACEIYARAANMFKMAKNWSAAGNAFCQAAQLHLQLQSKHDAATCFVDAGNAFKKADPQEAINCLMRAIEIYTDMGRFTIAAKHHISIAEIYETELVDIEKAIAHYEQSADYYKGEESNSSANKCLLKVAGYAALLEQYQKAIDIYEQVGTNAMDSPLLKYSAKDYFFKAALCHFCIDMLNAKLAVQKYEELFPAFSDSRECKLMKKLLEAHEEQNVDSYTESVKEYDSISRLDQWLTTMLLRIKKTIQGDEEDLR [NAPA]”: the percent infected is, setting by setting: (BHK/HA-Zeo (control)) 91.3%; (BHK/NZAP-Zeo (ZAP)) 94.8%.
EPAS1 had a percent infected (BHK/HA-Zeo (control)) of 98.1% and a percent infected (BHK/NZAP-Zeo (ZAP)) of 92.9%.
